Measurements taken from the supplement of paper PMC12067093, “Discovery and optimisation of a covalent ligand for TRIM25 and its application to targeted protein ubiquitination” (Chemical Science, 2025).
The list shows a part of the results.

By UniProt entry, the sequences of proteins in these tests, tags left out. Where a name states a change or a piece, a line headed by the entry shows the natural chain unless it says otherwise.
UniProt Q92551: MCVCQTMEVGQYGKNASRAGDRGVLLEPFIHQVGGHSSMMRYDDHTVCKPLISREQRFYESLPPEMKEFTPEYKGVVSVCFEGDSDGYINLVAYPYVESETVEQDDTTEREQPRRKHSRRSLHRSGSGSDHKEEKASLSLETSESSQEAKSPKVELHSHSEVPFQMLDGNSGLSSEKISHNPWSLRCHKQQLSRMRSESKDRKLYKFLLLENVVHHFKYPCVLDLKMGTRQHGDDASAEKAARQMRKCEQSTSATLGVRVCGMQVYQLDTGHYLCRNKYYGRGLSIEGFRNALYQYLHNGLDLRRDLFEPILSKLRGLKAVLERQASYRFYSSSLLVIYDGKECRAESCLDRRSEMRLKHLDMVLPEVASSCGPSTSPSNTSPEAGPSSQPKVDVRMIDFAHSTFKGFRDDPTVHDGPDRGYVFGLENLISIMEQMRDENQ
UniProt O00410: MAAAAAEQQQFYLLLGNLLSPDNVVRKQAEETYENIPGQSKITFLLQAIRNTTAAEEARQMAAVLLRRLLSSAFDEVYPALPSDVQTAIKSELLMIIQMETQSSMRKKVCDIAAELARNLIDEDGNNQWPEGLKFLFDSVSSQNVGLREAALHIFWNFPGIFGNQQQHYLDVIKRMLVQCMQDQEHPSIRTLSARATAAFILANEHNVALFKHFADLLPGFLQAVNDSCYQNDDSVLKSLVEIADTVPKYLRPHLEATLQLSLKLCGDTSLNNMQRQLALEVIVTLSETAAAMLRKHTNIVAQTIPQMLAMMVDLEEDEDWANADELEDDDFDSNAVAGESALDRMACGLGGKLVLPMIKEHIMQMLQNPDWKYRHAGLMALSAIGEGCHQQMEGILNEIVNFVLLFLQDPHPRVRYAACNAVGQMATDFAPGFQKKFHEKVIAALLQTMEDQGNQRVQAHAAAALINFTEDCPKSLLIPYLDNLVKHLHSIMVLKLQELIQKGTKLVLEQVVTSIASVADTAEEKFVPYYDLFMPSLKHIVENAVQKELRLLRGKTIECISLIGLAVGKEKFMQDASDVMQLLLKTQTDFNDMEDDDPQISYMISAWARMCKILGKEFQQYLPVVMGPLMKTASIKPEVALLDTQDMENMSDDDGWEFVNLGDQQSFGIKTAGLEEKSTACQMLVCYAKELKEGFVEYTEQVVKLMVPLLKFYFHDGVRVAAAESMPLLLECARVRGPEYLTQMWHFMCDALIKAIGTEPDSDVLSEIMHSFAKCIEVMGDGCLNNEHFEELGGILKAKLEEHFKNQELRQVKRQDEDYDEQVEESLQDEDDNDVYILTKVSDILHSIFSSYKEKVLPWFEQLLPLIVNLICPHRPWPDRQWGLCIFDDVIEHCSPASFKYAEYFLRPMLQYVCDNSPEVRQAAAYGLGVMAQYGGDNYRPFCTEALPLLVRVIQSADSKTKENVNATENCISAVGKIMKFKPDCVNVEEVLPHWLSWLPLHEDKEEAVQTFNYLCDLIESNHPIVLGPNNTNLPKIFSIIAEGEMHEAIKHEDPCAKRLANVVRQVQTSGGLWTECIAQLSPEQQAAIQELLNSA
UniProt P13612, whole entry, looked up: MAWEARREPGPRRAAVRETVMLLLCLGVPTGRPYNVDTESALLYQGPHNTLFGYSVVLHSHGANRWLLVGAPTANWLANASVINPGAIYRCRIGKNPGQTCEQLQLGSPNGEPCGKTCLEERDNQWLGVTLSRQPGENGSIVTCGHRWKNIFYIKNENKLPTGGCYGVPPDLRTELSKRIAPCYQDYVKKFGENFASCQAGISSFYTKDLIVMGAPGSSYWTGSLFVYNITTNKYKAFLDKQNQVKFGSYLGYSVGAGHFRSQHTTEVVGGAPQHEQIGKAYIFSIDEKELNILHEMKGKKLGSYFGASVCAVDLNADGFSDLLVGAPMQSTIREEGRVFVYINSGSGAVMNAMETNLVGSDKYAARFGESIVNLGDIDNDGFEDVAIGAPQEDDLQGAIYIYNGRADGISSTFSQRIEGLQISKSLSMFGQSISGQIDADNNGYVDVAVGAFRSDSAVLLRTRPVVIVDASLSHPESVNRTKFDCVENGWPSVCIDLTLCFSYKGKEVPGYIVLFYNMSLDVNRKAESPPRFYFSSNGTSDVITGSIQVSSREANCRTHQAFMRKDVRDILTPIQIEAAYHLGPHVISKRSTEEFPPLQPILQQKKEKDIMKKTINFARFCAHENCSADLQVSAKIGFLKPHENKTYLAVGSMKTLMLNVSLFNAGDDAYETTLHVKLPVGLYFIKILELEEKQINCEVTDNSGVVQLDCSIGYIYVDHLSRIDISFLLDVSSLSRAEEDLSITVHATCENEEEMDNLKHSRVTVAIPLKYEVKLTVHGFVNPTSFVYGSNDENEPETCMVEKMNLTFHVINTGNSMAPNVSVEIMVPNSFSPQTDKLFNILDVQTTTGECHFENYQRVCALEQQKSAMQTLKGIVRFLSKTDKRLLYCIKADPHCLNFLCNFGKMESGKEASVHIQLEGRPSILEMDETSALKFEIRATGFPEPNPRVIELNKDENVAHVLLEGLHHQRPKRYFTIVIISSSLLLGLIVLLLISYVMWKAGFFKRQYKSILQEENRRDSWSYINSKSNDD
UniProt Q9H0H0, whole entry, looked up: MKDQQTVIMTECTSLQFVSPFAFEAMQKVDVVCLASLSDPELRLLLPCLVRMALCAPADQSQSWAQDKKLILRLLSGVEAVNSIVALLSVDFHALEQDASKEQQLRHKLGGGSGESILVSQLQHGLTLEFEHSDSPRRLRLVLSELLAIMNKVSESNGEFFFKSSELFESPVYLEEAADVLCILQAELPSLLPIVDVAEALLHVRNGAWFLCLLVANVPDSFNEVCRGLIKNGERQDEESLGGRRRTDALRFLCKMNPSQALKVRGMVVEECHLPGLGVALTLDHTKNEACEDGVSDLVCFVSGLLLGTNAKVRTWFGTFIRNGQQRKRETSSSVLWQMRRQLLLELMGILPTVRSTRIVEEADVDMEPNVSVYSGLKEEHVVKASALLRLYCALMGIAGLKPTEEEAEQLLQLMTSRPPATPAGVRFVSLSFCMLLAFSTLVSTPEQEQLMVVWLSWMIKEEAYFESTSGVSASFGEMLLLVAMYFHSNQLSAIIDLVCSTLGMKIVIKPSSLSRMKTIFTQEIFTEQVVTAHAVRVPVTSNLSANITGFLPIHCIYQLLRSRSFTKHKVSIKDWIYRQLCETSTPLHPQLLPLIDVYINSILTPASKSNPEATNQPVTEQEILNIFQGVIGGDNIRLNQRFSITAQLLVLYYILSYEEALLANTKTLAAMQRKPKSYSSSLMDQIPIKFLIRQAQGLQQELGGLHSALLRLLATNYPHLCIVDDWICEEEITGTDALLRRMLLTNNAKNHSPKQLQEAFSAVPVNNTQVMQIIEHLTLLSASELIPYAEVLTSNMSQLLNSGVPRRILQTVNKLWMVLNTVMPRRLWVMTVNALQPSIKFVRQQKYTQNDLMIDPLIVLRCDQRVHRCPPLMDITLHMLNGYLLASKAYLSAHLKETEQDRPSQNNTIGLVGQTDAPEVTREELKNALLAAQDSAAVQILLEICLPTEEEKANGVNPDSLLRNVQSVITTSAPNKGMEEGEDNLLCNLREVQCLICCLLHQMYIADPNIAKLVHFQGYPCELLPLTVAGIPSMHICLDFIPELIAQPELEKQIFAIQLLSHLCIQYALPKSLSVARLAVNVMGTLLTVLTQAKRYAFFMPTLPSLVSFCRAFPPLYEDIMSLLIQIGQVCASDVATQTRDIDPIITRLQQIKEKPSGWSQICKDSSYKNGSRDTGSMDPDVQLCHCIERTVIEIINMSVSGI
UniProt Q9NVH2, whole entry, looked up: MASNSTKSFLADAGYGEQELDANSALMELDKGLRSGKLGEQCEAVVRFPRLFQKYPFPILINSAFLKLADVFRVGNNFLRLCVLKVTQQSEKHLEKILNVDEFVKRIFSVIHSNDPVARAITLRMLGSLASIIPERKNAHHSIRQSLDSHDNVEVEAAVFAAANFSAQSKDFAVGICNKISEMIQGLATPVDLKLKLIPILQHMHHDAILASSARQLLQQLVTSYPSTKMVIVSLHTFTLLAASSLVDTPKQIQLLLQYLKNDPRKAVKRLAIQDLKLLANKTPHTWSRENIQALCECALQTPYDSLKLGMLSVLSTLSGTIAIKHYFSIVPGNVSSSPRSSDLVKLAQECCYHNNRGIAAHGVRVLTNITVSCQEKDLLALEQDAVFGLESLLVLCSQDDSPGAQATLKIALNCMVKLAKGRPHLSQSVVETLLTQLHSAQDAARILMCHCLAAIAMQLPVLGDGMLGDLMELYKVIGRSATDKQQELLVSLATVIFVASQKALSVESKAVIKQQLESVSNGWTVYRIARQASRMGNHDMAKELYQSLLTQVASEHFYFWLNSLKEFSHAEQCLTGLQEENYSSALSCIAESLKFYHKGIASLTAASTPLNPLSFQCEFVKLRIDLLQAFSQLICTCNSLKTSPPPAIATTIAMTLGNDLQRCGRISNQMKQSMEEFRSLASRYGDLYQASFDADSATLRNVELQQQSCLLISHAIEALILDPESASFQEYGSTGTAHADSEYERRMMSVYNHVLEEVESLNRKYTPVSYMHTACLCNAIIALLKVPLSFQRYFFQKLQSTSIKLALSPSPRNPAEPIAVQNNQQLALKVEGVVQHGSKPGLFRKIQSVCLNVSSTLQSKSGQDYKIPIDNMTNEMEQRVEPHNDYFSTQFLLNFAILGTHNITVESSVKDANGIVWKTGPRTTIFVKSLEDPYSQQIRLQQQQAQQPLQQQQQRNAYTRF

Compound: Cc1cc(ccc1-c1ccccc1)C(=O)N1CCCN(CC1)C(=O)CCl [compound 10]
Test: probe-labelled cysteine peptide fold change vs DMSO (competition) (log2 fold change); higher = less target engagement (more negative = stronger competition)
Settings: THP-1, incubation time: 4 h
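Note: competitive profiling in live THP-1 cells: cysteine peptides tagged with an iodoacetamide desthiobiotin (IA-DTB) probe, intensity after compound treatment relative to DMSO-treated cells.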

IP6K1_Q92551_248_KCEQSTSATLGVR (UniProt Q92551)
probe-labelled cysteine peptide fold change (10 µM): -0.0618 | probe-labelled cysteine peptide fold change (50 µM): -0.363

IPO5_O00410_733_VAAAESMPLLLECAR (UniProt O00410)
probe-labelled cysteine peptide fold change (10 µM): -0.0304 | probe-labelled cysteine peptide fold change (50 µM): -0.00751

ITGA4_P13612_861_VCALEQQK (UniProt P13612)
probe-labelled cysteine peptide fold change (10 µM): -0.177 | probe-labelled cysteine peptide fold change (50 µM): 0.247

INTS2_Q9H0H0_1186+1188_DTGSMDPDVQLCHCIER (UniProt Q9H0H0)
probe-labelled cysteine peptide fold change (10 µM): 0.151 | probe-labelled cysteine peptide fold change (50 µM): -0.119

ITGA4_P13612_198_KFGENFASCQAGISSFYTK (UniProt P13612)
probe-labelled cysteine peptide fold change (10 µM): -0.185 | probe-labelled cysteine peptide fold change (50 µM): -0.242

IPO5_O00410_1057_IFSIIAEGEMHEAIKHEDPCAK (UniProt O00410)
probe-labelled cysteine peptide fold change (10 µM): -0.29 | probe-labelled cysteine peptide fold change (50 µM): -0.533

INTS7_Q9NVH2_618_GIASLTAASTPLNPLSFQCEFVK (UniProt Q9NVH2)
probe-labelled cysteine peptide fold change (10 µM): 0.0028 | probe-labelled cysteine peptide fold change (50 µM): 0.287
